# Results taken from PubChem BioAssay AID2685 (National Center for Advancing Translational Sciences (NCATS), 2010).
# The list shows a part of the results. Further columns of the screen follow, without active or inactive calls. Compounds called inactive in the main read-out are mostly missing here. The note in brackets gives the kind of curve behind each potency; many fits are weak.
# Test: qHTS Assay for Lipid Storage Modulators in Drosophila S3 Cells;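 for cell number change: cells counted by Cell Tracker Red CMTPX staining in the red channel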
# Settings: BODIPY lipid droplet fluorescence, 18-24 h; for cell number change: measured here: cell count max response, cells fed with added oleic acid
# Summary of the method: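 Drosophila S3 cells got compounds at several concentrations plus oleic acid (400 uM solution). Laser-scanning cytometry with 488 nm excitation read lipid droplets at 500-530 nm and cells at 575-640 nm. Percent activity was relative to 20 uM Triacsin C.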
# [1] = measured here: lipid fluorescence (Fed channel) AC50, cells fed with added oleic acid
# [2] = measured here: cell number channel AC50, cells fed with added oleic acid
Compound,cell number change,AC50 [1],AC50 [2]
Clc1ccc(-c2csc(Nc3cccnc3)n2)cc1,17.4%,"0.13 µM [rising, full curve, poor fit]",
COc1ccc2[nH]c3c(N4CCN(Cc5ccc6c(c5)OCO6)CC4)ncnc3c2c1,-14.1%,"29.1 µM [falling, single point]",
COc1ccc(NC(=S)N2CCN(S(=O)(=O)c3ccc(F)cc3)CC2)cc1OC,,,"0.092 µM [falling, full curve, poor fit]"
CN(C)c1ccc(CN(C(=O)c2ccco2)C2CCS(=O)(=O)C2)cc1 (configuration not stated),7.21%,"0.651 µM [rising, single point]",
COc1ccc(S(=O)(=O)NCCc2ccc(F)cc2)cc1,,"0.58 µM [falling, single point]",
O=C(Nc1ccc([N+](=O)[O-])cc1)/C(=C/c1cccc([N+](=O)[O-])c1)NC(=O)C1CCCCC1,-0.368%,"8.2 µM [falling, partial curve, poor fit]",
Cc1cc(Cl)cc(C)c1OCCn1ccnc1,16.8%,"2.91 µM [rising, partial curve]",
Cc1ccc(CCNC(=O)CN2C(=O)COc3ccccc32)cc1,3.65%,,
O=C(CSc1n[nH]c(-c2ccccn2)n1)Nc1ccc(F)cc1,4.17%,"25.9 µM [falling, single point]",
CC1CN(c2nc3c(c(=O)n(C)c(=O)n3C)n2Cc2c(F)cccc2Cl)CC(C)O1 (configuration not stated),0.538%,,
COC(=O)c1ccccc1S(=O)c1snnc1C (configuration not stated),126%,"6.51 µM [falling, single point]","6.51 µM [falling, single point]"
COc1cccc(C(=O)CN2C(=O)C(C)(C)Oc3ccc(C(=O)N4CCCCCC4)cc32)c1,4.21%,,
CC[n+]1ccc(/C=C/c2ccc(N(C)C)cc2)c2ccccc21,-102%,"1.46 µM [falling, full curve]","23.1 µM [falling, partial curve]"
COc1ccc(-c2nc3ccccc3s2)cc1O,,,"1.64 µM [falling, partial curve]"
O=C1c2ccccc2C(Nc2ccc3c(c2)OCCO3)N1Cc1ccc2c(c1)OCO2 (configuration not stated),44.6%,,"0.411 µM [rising, full curve]"
Cc1sc2nc(CC(=O)N3CCCC3)[nH]c(=O)c2c1C,,,"0.58 µM [rising, single point]"
O=C(CN1CCN(c2ccccc2)CC1)NC(=O)NCc1ccco1,2.51%,"2.91 µM [falling, full curve]",
O=C(Nc1ccccc1N1CCOCC1)C1=NN(c2ccccc2)C(=O)CC1,-2.93%,"2.31 µM [rising, partial curve]",
COc1cc(-c2nc(-c3ccc4c(c3)-c3ccccc3S4(=O)=O)c(-c3ccccc3)[nH]2)cc(OC)c1O,12.2%,"6.51 µM [rising, single point]",
Cc1ccc(CSC2=Nc3sccc3C3=NC(=O)CN23)cc1,2.31%,"2.31 µM [falling, partial curve, poor fit]",
NC(=O)Nc1ccc(C(=O)OCC(=O)Nc2sccc2C(N)=O)cc1,62.5%,,"14.6 µM [rising, partial curve, poor fit]"

Compound,cell number change,AC50 [1],AC50 [2]
COc1ccc(C)cc1NC(=O)CN1C(=O)COc2ccc(S(=O)(=O)N3CCCCC3)cc21,-5.11%,,
O=C(COC(=O)c1ccc([N+](=O)[O-])s1)NCCc1ccccc1,-14.2%,"1.03 µM [falling, full curve, poor fit]",
NS(=O)(=O)c1ccc(NC(=O)COC(=O)COc2ccccc2)cc1,-23.4%,"16.4 µM [rising, single point]",
O=C(c1ccc(OC2CCN(CCc3ccccc3)CC2)cc1)N1CCCCC1CCCO (configuration not stated),20.9%,"0.651 µM [falling, single point]",
CCCn1c(C)cc(C(=O)COc2ccc(-c3nnco3)cc2)c1C,-21.4%,"29.1 µM [falling, single point]",
CC(C)(C)C(=O)Nc1ccc(C(=O)N/N=C/c2ccccc2OC(=O)c2ccc(Cl)cc2Cl)cc1,16.3%,"6.51 µM [rising, single point]",
Cn1ccc(-c2ccccc2)c(C#N)c1=O,16.4%,,
CCOC(=O)C1=C(COC(=O)COc2ccccc2C#N)NC(=O)NC1C (configuration not stated),,"1.84 µM [falling, partial curve]",
COc1cc(C(=O)N/N=C/c2ccccn2)cc(OC)c1OC,55.5%,"29.1 µM [rising, single point]","20.6 µM [rising, single point]"
COc1cccc(-c2c(C(=O)N/N=C/c3ccc(C)s3)nnn2-c2nonc2N)c1,34.7%,,
COc1cccc(-c2ccc(NC(=O)C3CCCN(Cc4cnn(C(C)C)c4)C3)cc2)c1 (configuration not stated),4.46%,"29.1 µM [rising, single point]",
COc1ccc(N(C(=O)CCl)C(C(=O)NCCc2ccccc2)c2cccs2)cc1Cl (configuration not stated),-7.94%,"29.1 µM [falling, single point]",
CCOC(=O)C(NC(=O)Nc1ccccc1)(OCC)C(F)(F)F (configuration not stated),-31.9%,,"0.461 µM [falling, full curve, poor fit]"
COCCOC(=O)c1c(NC(=O)COC(=O)Cc2cccc(OC)c2)sc(C(N)=O)c1C,,"2.31 µM [falling, partial curve, poor fit]",
CCC(CC)COC(=O)C1=C(C)NC(=O)NC1c1cccc([N+](=O)[O-])c1 (configuration not stated),-29.4%,"29.1 µM [falling, single point]",
CCOC(=O)c1cnc(SCC(=O)c2ccc3c(c2)OCCO3)nc1N,11.2%,"29.1 µM [rising, single point]",
CS(=O)(=O)Nc1ccccc1C(=O)NCC1(N2CCCCC2)CCCCC1,33.3%,,"32.6 µM [rising, single point]"
Cc1cc2c(s1)c1cnn(-c3ccccc3)c(=O)c1n2C,28.7%,,
O=C1CCCN1c1ccc(CNS(=O)(=O)c2ccc(F)cc2)cc1,-0.607%,"5.17 µM [falling, full curve, poor fit]",
Fc1ccc(-c2cn(-c3ccccc3)c3[n+]2CCS3)cc1,-0.107%,"0.291 µM [falling, full curve, poor fit]",
CCNC(=O)CC1SC(=Nc2ccc(C)cc2)N(CC)C1=O (configuration not stated),8.81%,"6.51 µM [rising, partial curve]",

# An excerpt of these results, as tab-separated lines.
Compound	cell number change	AC50 [1]	AC50 [2]
COc1ccc(S(=O)(=O)NCCc2ccc(F)cc2)cc1		0.58 µM [falling, single point]	
O=C(c1ccc(OC2CCN(CCc3ccccc3)CC2)cc1)N1CCCCC1CCCO (configuration not stated)	20.9%	0.651 µM [falling, single point]	

# Going on with the list.

Compound,cell number change,AC50 [1],AC50 [2]
CC1CCN(CC(=O)Nc2ccc(S(=O)(=O)N3CCCC(C)C3)cc2)CC1 (configuration not stated),-2.11%,,
CCCCN(CC)Cc1c(C)[nH]c2ccccc2c1=O,-0.391%,"16.4 µM [falling, single point]",
CN(C)S(=O)(=O)c1cccc(-c2csc(=Nc3ccccc3)n2CCCN2CCOCC2)c1,24.7%,"3.66 µM [rising, full curve, poor fit]","1.64 µM [rising, partial curve, poor fit]"
Cc1ccc(N2CCN(S(=O)(=O)c3ccc4oc(=O)ccc4c3)CC2)c(C)c1,-12.4%,"6.51 µM [falling, single point]",
CCOC(=O)C1CCCN(Cc2cc(=O)oc3cc(C)ccc23)C1 (configuration not stated),-7.14%,,
Cc1ccc(-n2ncc3c(SCc4ccccn4)ncnc32)c(C)c1,-34.4%,,"0.0291 µM [falling, full curve, poor fit]"
Fc1ccccc1N1CCN(Cc2nc(-c3ccc(Cl)cc3Cl)no2)CC1,5.42%,"20.6 µM [rising, single point]",
Cc1ccccc1OCCCC(=O)Nc1ccc(S(=O)(=O)Nc2onc(C)c2C)cc1,53.8%,,"11.6 µM [rising, partial curve]"
CC(Oc1ccc2c(-c3ccccc3)cc(=O)oc2c1)C(=O)NCC1CCC(C(=O)O)CC1 (configuration not stated),23.6%,,
O=C(NCCN1CCN(c2ccccc2)CC1)Nc1cccc(Br)c1,13.9%,,
CCc1cc(C(=O)c2ccccc2)c(N)s1,-14.4%,,
CCCOc1ccc2c(C)c(CC(=O)OC)c(=O)oc2c1,-3.1%,"3.26 µM [rising, partial curve]",
CCOC(=O)CC(=O)CSc1nc(-c2ccccc2)cc(-c2ccccc2)c1C#N,5.87%,"0.366 µM [rising, full curve]",
COc1ccc(S(=O)(=O)N(C)CC(=O)NCc2cccnc2)cc1C,,"0.58 µM [rising, single point]",
O=C(Oc1c(-c2ccccc2)oc2ccccc2c1=O)c1ccccc1,-6.29%,"29.1 µM [rising, single point]",
Nc1ccc(N2CCN(c3ccccc3)CC2)c(F)c1,-33.1%,,"18.4 µM [falling, partial curve, poor fit]"
COc1cccc(-c2noc(C3CCCN(C(=O)c4ccc(F)cc4)C3)n2)c1 (configuration not stated),19.6%,,
CCCCCSc1ncccc1C(=O)O,11.4%,"3.66 µM [rising, single point]","0.00517 µM [rising, full curve, poor fit]"
CCN(CC)S(=O)(=O)c1ccc2[nH]c(=O)cc(C(=O)NCC3CCCO3)c2c1 (configuration not stated),-29.6%,"1.84 µM [falling, full curve]","1.46 µM [falling, full curve, poor fit]"
O=C(NCC1CCOCC1)c1cc(COc2cccc(C(F)(F)F)c2)on1,,"6.51 µM [rising, single point]",
Cc1cc(NCCCN2CCOCC2)n2nc(C)c(-c3ccccc3)c2n1,58.4%,"6.51 µM [rising, single point]","20.6 µM [rising, single point]"
